Measurements: the supplement of paper PMC6078165
± gives the standard deviation of the averaged measurements. The reference is the same well before dosing, and untreated signal decays as well.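 Fibroblast labels name human fibroblasts: mostly primary ones from tissues such as uterus (C12385, HUF), lung (H6013), bone (Hs27A), adrenal (HADF) and skin (WS1), plus mammary HMF and breast cancer-associated Hs343T. The cancer cells are basal-like or mesenchymal-like triple-negative breast cancer lines. The paper calls a changed response a hit when it shifts by more than 3x the replicate standard deviation. The tissue of the other fibroblasts is not given here.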

System: MDAMB468
Assay: relative JC-1 red fluorescence (viability) vs pre-drug, coculture with fibroblast (fraction); higher = more viable cancer cells
Procedure: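 JC-1 labelled TNBC cells cocultured 1:1 (1,500 cells each) with CellTrace Violet stained primary or stromal fibroblasts in 384-well plates in FluoroBrite medium, treated with one of 42 anticancer drugs at 0.1, 1, 10 or 100 uM. JC-1 red fluorescence (mitochondrial integrity in cancer cells only) was read by plate reader every 8 h for 72 h. Values are normalised to each well's pre-drug value. The stock of one drug was tenfold lower, so its dose labels may be too high.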

C=C1C[C@@H]2[C@H](CC[C@]3(C)C(=O)CC[C@@H]23)[C@@]2(C)C=CC(=O)C=C12 [Exemestane]
relative JC-1 red fluorescence
Conditions | 8 h | 16 h | 24 h | 32 h | 40 h | 48 h | 56 h | 64 h | 72 h
10 µM, coculture fibroblast: C12385 | 0.894 ± 0.027 | 0.834 ± 0.044 | 0.831 ± 0.075 | 0.794 ± 0.082 | 0.765 ± 0.096 | 0.749 ± 0.09 | 0.692 ± 0.095 | 0.651 ± 0.096 | 0.632 ± 0.093
10 µM, coculture fibroblast: H6013 | 0.90124 ± 0.0003 | 0.841 ± 0.026 | 0.823 ± 0.0085 | 0.8103 ± 0.0066 | 0.779 ± 0.011 | 0.79 ± 0.022 | 0.762 ± 0.025 | 0.751 ± 0.042 | 0.697 ± 0.038
10 µM, coculture fibroblast: H6019 | 0.8506 ± 0.002 | 0.8218 ± 0.0045 | 0.793 ± 0.0094 | 0.738 ± 0.034 | 0.697 ± 0.042 | 0.68 ± 0.057 | 0.617 ± 0.041 | 0.586 ± 0.051 | 0.561 ± 0.055
10 µM, coculture fibroblast: H6076 | 0.939 ± 0.0063 | 0.97 ± 0.016 | 0.9366 ± 0.0054 | 0.9506 ± 0.0012 | 0.884 ± 0.018 | 0.874 ± 0.02 | 0.828 ± 0.03 | 0.813 ± 0.036 | 0.85 ± 0.045
10 µM, coculture fibroblast: H6231 | 0.843 ± 0.034 | 0.919 ± 0.065 | 0.9 ± 0.072 | 0.917 ± 0.075 | 0.857 ± 0.078 | 0.843 ± 0.076 | 0.805 ± 0.077 | 0.782 ± 0.082 | 0.792 ± 0.078
10 µM, coculture fibroblast: HADF | 0.906 ± 0.018 | 0.861 ± 0.0036 | 0.818 ± 0.012 | 0.812 ± 0.018 | 0.762 ± 0.026 | 0.738 ± 0.0094 | 0.692 ± 0.013 | 0.671 ± 0.011 | 0.612 ± 0.024
10 µM, coculture fibroblast: HCFa | 0.8946 ± 0.0055 | 0.812 ± 0.013 | 0.789 ± 0.027 | 0.761 ± 0.042 | 0.706 ± 0.045 | 0.704 ± 0.047 | 0.649 ± 0.049 | 0.615 ± 0.057 | 0.561 ± 0.047
10 µM, coculture fibroblast: HCPF | 0.862 ± 0.052 | 0.962 ± 0.025 | 0.888 ± 0.015 | 0.887 ± 0.015 | 0.807 ± 0.015 | 0.77 ± 0.027 | 0.714 ± 0.04 | 0.692 ± 0.043 | 0.675 ± 0.033
10 µM, coculture fibroblast: HHSteC | 0.92451 ± 0.00051 | 0.8664 ± 0.0054 | 0.8383 ± 0.0023 | 0.8245 ± 0.0026 | 0.785 ± 0.011 | 0.789 ± 0.013 | 0.721 ± 0.0093 | 0.695 ± 0.029 | 0.65 ± 0.021
10 µM, coculture fibroblast: HMF | 0.84 ± 0.014 | 0.967 ± 0.026 | 0.8746 ± 0.0021 | 0.871 ± 0.018 | 0.802 ± 0.0081 | 0.782 ± 0.025 | 0.727 ± 0.032 | 0.695 ± 0.041 | 0.671 ± 0.042
10 µM, coculture fibroblast: HPFa | 0.953 ± 0.011 | 0.895 ± 0.029 | 0.865 ± 0.034 | 0.813 ± 0.038 | 0.779 ± 0.036 | 0.768 ± 0.037 | 0.704 ± 0.049 | 0.668 ± 0.061 | 0.578 ± 0.064
10 µM, coculture fibroblast: HUF | 0.931 ± 0.015 | 0.853 ± 0.0097 | 0.7963 ± 0.0075 | 0.7347 ± 0.0044 | 0.68442 ± 0.00064 | 0.65 ± 0.0079 | 0.611 ± 0.015 | 0.588 ± 0.0076 | 0.561 ± 0.011
10 µM, coculture fibroblast: Hs5 | 0.88 ± 0.16 | 0.9792 ± 0.0053 | 0.96 ± 0.01 | 0.956 ± 0.018 | 0.906 ± 0.018 | 0.884 ± 0.014 | 0.84 ± 0.013 | 0.8051 ± 0.0034 | 0.8219 ± 0.002
10 µM, coculture fibroblast: Hs27A | 0.8818 ± 0.0015 | 0.8269 ± 0.0056 | 0.796 ± 0.021 | 0.807 ± 0.016 | 0.7494 ± 0.0026 | 0.7437 ± 0.0042 | 0.6934 ± 0.0016 | 0.671 ± 0.0094 | 0.612 ± 0.011
10 µM, coculture fibroblast: Hs343T | 0.881 ± 0.018 | 0.948 ± 0.049 | 0.918 ± 0.013 | 0.902 ± 0.012 | 0.851 ± 0.012 | 0.833 ± 0.015 | 0.775 ± 0.026 | 0.75 ± 0.021 | 0.715 ± 0.029
10 µM, coculture fibroblast: WS1 | 0.879 ± 0.014 | 0.786 ± 0.011 | 0.763 ± 0.046 | 0.703 ± 0.071 | 0.668 ± 0.082 | 0.638 ± 0.09 | 0.594 ± 0.091 | 0.554 ± 0.1 | 0.526 ± 0.11
100 µM, coculture fibroblast: C12385 | 0.886 ± 0.028 | 0.8459 ± 0.007 | 0.854 ± 0.013 | 0.807 ± 0.015 | 0.764 ± 0.011 | 0.75282 ± 5.9e-05 | 0.706 ± 0.0062 | 0.6686 ± 0.0042 | 0.636 ± 0.008
100 µM, coculture fibroblast: H6013 | 0.874 ± 0.023 | 0.8371 ± 0.0075 | 0.78 ± 0.0091 | 0.762 ± 0.0092 | 0.716 ± 0.034 | 0.703 ± 0.053 | 0.669 ± 0.083 | 0.641 ± 0.11 | 0.586 ± 0.13
100 µM, coculture fibroblast: H6019 | 0.8853 ± 0.0012 | 0.854 ± 0.03 | 0.814 ± 0.045 | 0.735 ± 0.046 | 0.667 ± 0.051 | 0.632 ± 0.076 | 0.567 ± 0.095 | 0.521 ± 0.1 | 0.495 ± 0.095
100 µM, coculture fibroblast: H6076 | 0.91 ± 0.02 | 0.933 ± 0.047 | 0.9059 ± 0.0015 | 0.923 ± 0.031 | 0.85 ± 0.036 | 0.85 ± 0.065 | 0.819 ± 0.087 | 0.804 ± 0.081 | 0.869 ± 0.11
100 µM, coculture fibroblast: H6231 | 0.8585 ± 0.0047 | 0.9249 ± 0.0083 | 0.876 ± 0.025 | 0.882 ± 0.014 | 0.823 ± 0.0093 | 0.795 ± 0.012 | 0.7435 ± 0.0041 | 0.716 ± 0.013 | 0.697 ± 0.013
100 µM, coculture fibroblast: HADF | 0.8882 ± 0.0044 | 0.866 ± 0.021 | 0.82 ± 0.062 | 0.821 ± 0.077 | 0.765 ± 0.066 | 0.728 ± 0.079 | 0.661 ± 0.07 | 0.637 ± 0.056 | 0.566 ± 0.055
100 µM, coculture fibroblast: HCFa | 0.886 ± 0.025 | 0.901 ± 0.059 | 0.867 ± 0.077 | 0.874 ± 0.083 | 0.812 ± 0.078 | 0.807 ± 0.063 | 0.745 ± 0.052 | 0.701 ± 0.057 | 0.647 ± 0.065
100 µM, coculture fibroblast: HCPF | 0.9242 ± 0.0078 | 0.919 ± 0.071 | 0.946 ± 0.022 | 0.931 ± 0.01 | 0.864 ± 0.033 | 0.843 ± 0.042 | 0.79 ± 0.043 | 0.775 ± 0.05 | 0.77 ± 0.051
100 µM, coculture fibroblast: HHSteC | 0.8906 ± 0.0081 | 0.8738 ± 0.0086 | 0.855 ± 0.017 | 0.848 ± 0.012 | 0.811 ± 0.014 | 0.8133 ± 0.0031 | 0.721 ± 0.038 | 0.682 ± 0.054 | 0.609 ± 0.053
100 µM, coculture fibroblast: HMF | 0.869 ± 0.014 | 0.9772 ± 0.0086 | 0.94 ± 0.016 | 0.912 ± 0.015 | 0.8405 ± 0.0032 | 0.816 ± 0.014 | 0.764 ± 0.034 | 0.737 ± 0.043 | 0.714 ± 0.053
100 µM, coculture fibroblast: HPFa | 0.9276 ± 0.0027 | 0.8852 ± 0.0022 | 0.858 ± 0.011 | 0.809 ± 0.017 | 0.767 ± 0.013 | 0.7742 ± 0.0027 | 0.707 ± 0.028 | 0.682 ± 0.045 | 0.611 ± 0.06
100 µM, coculture fibroblast: HUF | 0.9246 ± 0.004 | 0.843 ± 0.0098 | 0.826 ± 0.018 | 0.7701 ± 0.0015 | 0.7352 ± 0.0018 | 0.716 ± 0.013 | 0.659 ± 0.01 | 0.6394 ± 0.0014 | 0.6071 ± 0.00096
100 µM, coculture fibroblast: Hs5 | 0.98 ± 0.026 | 0.918 ± 0.038 | 0.925 ± 0.024 | 0.93 ± 0.0094 | 0.884 ± 0.026 | 0.873 ± 0.024 | 0.845 ± 0.02 | 0.813 ± 0.01 | 0.8376 ± 0.0057
100 µM, coculture fibroblast: Hs27A | 0.8497 ± 0.0014 | 0.816 ± 0.024 | 0.743 ± 0.04 | 0.739 ± 0.039 | 0.67 ± 0.055 | 0.653 ± 0.052 | 0.576 ± 0.063 | 0.521 ± 0.071 | 0.439 ± 0.064
100 µM, coculture fibroblast: Hs343T | 0.878 ± 0.015 | 0.899 ± 0.038 | 0.893 ± 0.07 | 0.899 ± 0.067 | 0.828 ± 0.073 | 0.81 ± 0.08 | 0.777 ± 0.057 | 0.771 ± 0.057 | 0.765 ± 0.046
100 µM, coculture fibroblast: WS1 | 0.903 ± 0.041 | 0.879 ± 0.071 | 0.847 ± 0.09 | 0.79 ± 0.096 | 0.729 ± 0.088 | 0.675 ± 0.064 | 0.649 ± 0.067 | 0.601 ± 0.071 | 0.589 ± 0.063
